# Values quoted from earlier work in patent publication US20060193781A1, “Magnetic resonance imaging of metal concentrations” (priority 2002, published 2006).
# At least one compound was matched to its structure with a doubt left.
# Settings: cited from earlier work
smiles,measurement,value
"O=C(O)CN(CC(=O)O)c1ccccc1OCCOc1ccccc1N(CC(=O)O)CC(=O)O [BAPTA, 1,2-bis-(2-amino-phenoxy)ethane-N,N,N′,N′-tetraacetic acid]",dissociation constant of the zinc complex relative to that of the calcium ion,about two orders of magnitude smaller
